For test [1], the target named is cynomolgus monkey BDCA-2 on cells (Jurkat-cynoBDCA-2 cells; cynomolgus monkey pDCs) (cynomolgus monkey). Kind of test: flow cytometry on Jurkat-cynoBDCA-2 cells. Background: In flow cytometry, cells or beads pass a laser one at a time.
Test [2] addresses human BDCA-2 on cells (Jurkat-hBDCA-2 cells; human pDCs; human PBMCs) (human) (UniProt Q8WTT0). In words: flow cytometry on Jurkat-hBDCA-2 cells.

By UniProt entry, the sequences of proteins in these tests, tags left out.
UniProt Q8WTT0: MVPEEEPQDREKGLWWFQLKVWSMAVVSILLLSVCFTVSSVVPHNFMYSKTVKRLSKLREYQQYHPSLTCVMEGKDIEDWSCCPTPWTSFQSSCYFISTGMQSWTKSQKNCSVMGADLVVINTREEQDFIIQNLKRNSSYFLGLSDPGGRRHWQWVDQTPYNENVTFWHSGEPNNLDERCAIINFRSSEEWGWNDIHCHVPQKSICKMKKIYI

Results are given in words; binding and its absence hold for the method and conditions named. Some entries that bind do so weakly or less than the wild type.

B1: 164C11B8 (murine hybridoma monoclonal antibody) (antibody, V domains shown)
VH: DVILVESGGGLVKPGGSLKLSCAASGITFSTYTMSWLRQTPEKRLEWVATINSGGDNTYYPDSVKGRFTISRDNAKNNLYLQMSSLKSEDTALYYCATYRPYYYGSVLDYWGQGTTLTVSS
VL: DIVLTQSPASLAVSLGQRATISCKASQSVDYDGNSYVNWYQQKPGQPPKLLIYGASNLESGIPDRFSGSGSGTDFTLNIHPVEEEDGATYYCQQSDEDPWTFGGGTKLEIR
B1: in test [1], the binding entry is listed as “binds”.

B2: 17G6A2 (murine hybridoma monoclonal antibody) (antibody, V domains shown)
VH: EVQLVESGGDLVKPGGSLKLSCAASGFTFSSYGMSWVRQTPDKRLEWVATISSGDSYTYYPDSVKGRFTISRDNAKNTLYLQMSSLKSEDTAMYYCARQLYYSYGYYFDYWGQGTTLTVSS
VL: DIVLTQSPASLAVSLGQRATISCRASESVSFHGTHLMHWYQQKPGQPPKLLIYAASNLESGVPARFSGSGSETDFTLNIHPVEEEDAATYFCQQSIEDPPTFGGGTKLEIK
Take B2: in test [1], the binding entry is on record as “binds”.

B3: 164C11B8_hzH1L1_hIgG1 (antibody, V domains shown)
VH: EVQLLESGGGLVQPGGSLRLSCAASGFTFSTYTMSWVRQAPGKGLEWVSTINSGGDNTYYPDSVKGRFTISRDNSKNTLYLQMNSLRAEDTAVYYCATYRPYYYGSVLDYWGQGTTVTVSS
VL: DIVMTQSPDSLAVSLGERATINCKASQSVDYDGNSYVNWYQQKPGQPPKLLIYGASNLESGVPDRFSGSGSGTDFTLTISSLQAEDVAVYYCQQSDEDPWTFGGGTKVEIKR
Take B3: the binding entry in test [1] and in test [2] was “binds” throughout.

B4: 164C11B8_hzH4L1_hIgG1 (antibody, V domains shown)
VH: EVQLLESGGGLVQPGGSLRLSCAASGITFSTYTMSWVRQAPGKRLEWVATINSGGDNTYYPDSVKGRFTISRDNSKNTLYLQMNSLRAEDTAVYYCATYRPYYYGSVLDYWGQGTTVTVSS
VL: DIVMTQSPDSLAVSLGERATINCKASQSVDYDGNSYVNWYQQKPGQPPKLLIYGASNLESGVPDRFSGSGSGTDFTLTISSLQAEDVAVYYCQQSDEDPWTFGGGTKVEIKR
B4: the binding entry in test [1] and in test [2] was “binds” in each case.

B5: 164C11B8_hzH3L1_hIgG1 (antibody, V domains shown)
VH: EVQLLESGGGLVQPGGSLRLSCAASGITFSTYTMSWVRQAPGKGLEWVATINSGGDNTYYPDSVKGRFTISRDNSKNTLYLQMNSLRAEDTAVYYCATYRPYYYGSVLDYWGQGTTVTVSS
VL: DIVMTQSPDSLAVSLGERATINCKASQSVDYDGNSYVNWYQQKPGQPPKLLIYGASNLESGVPDRFSGSGSGTDFTLTISSLQAEDVAVYYCQQSDEDPWTFGGGTKVEIKR
On to B5, for which the binding entry in test [1] and in test [2] was “binds” throughout.

B6: 164C11B8_hzH2L1_hIgG1 (antibody, V domains shown)
VH: EVQLLESGGGLVQPGGSLRLSCAASGFTFSTYTMSWVRQAPGKGLEWVATINSGGDNTYYPDSVKGRFTISRDNSKNTLYLQMNSLRAEDTAVYYCATYRPYYYGSVLDYWGQGTTVTVSS
VL: DIVMTQSPDSLAVSLGERATINCKASQSVDYDGNSYVNWYQQKPGQPPKLLIYGASNLESGVPDRFSGSGSGTDFTLTISSLQAEDVAVYYCQQSDEDPWTFGGGTKVEIKR
Take B6: the binding result in test [1] and in test [2] was “binds” in each case.

B7: 17G6A2_hzH1L8_hIgG1 (antibody, V domains shown)
VH: EVQLVESGGGLVKPGGSLRLSCAASGFTFSSYGMSWVRQAPGKGLEWVSTISSGDSYTYYPDSVKGRFTISRDNAKNSLYLQMNSLRAEDTAVYYCARQLYYSYGYYFDYWGQGTTVTVSS
VL: DIVLTQSPASLAVSPGQRATITCRASESVSFHGTHLMHWYQQKPGQPPKLLIYAASNLESGVPARFSGSGSETDFTLTINPVEANDAANYYCQQSIEDPPTFGGGTKVEIKR
Take B7: the binding result in test [1] and in test [2] was “binds” in each case.

B8: 17G6A2_hzH3L7_hIgG1 (antibody, V domains shown)
VH: EVQLVESGGGLVKPGGSLRLSCAASGFTFSSYGMSWVRQAPGKRLEWVATISSGDSYTYYPDSVKGRFTISRDNAKNSLYLQMNSLRAEDTAVYYCARQLYYSYGYYFDYWGQGTTVTVSS
VL: DIVLTQSPASLAVSPGQRATITCRASESVSFHGTHLMHWYQQKPGQPPKLLIYAASNLESGVPARFSGSGSETDFTLTINPVEAEDTANYYCQQSIEDPPTFGGGTKVEIKR
Regarding B8, the binding result in test [1] and in test [2] was “binds” throughout.

B9: 17G6A2_hzH3L5_hIgG1 (antibody, V domains shown)
VH: EVQLVESGGGLVKPGGSLRLSCAASGFTFSSYGMSWVRQAPGKRLEWVATISSGDSYTYYPDSVKGRFTISRDNAKNSLYLQMNSLRAEDTAVYYCARQLYYSYGYYFDYWGQGTTVTVSS
VL: DIVLTQSPASLAVSPGQRATITCRASESVSFHGTHLMHWYQQKPGQPPKLLIYAASNLESGVPARFSGSGSGTDFTLTINPVEAEDTANYYCQQSIEDPPTFGGGTKVEIKR
For B9, the binding entry in test [1] and in test [2] was “binds” throughout.

B10: 17G6A2_hzH3L8_hIgG1 (antibody, V domains shown)
VH: EVQLVESGGGLVKPGGSLRLSCAASGFTFSSYGMSWVRQAPGKRLEWVATISSGDSYTYYPDSVKGRFTISRDNAKNSLYLQMNSLRAEDTAVYYCARQLYYSYGYYFDYWGQGTTVTVSS
VL: DIVLTQSPASLAVSPGQRATITCRASESVSFHGTHLMHWYQQKPGQPPKLLIYAASNLESGVPARFSGSGSETDFTLTINPVEANDAANYYCQQSIEDPPTFGGGTKVEIKR
With B10, the binding result in test [1] and in test [2] was “binds” each time.

B11: 17G6A2_hzH2L5_hIgG1 (antibody, V domains shown)
VH: EVQLVESGGGLVKPGGSLRLSCAASGFTFSSYGMSWVRQAPGKGLEWVATISSGDSYTYYPDSVKGRFTISRDNAKNSLYLQMNSLRAEDTAVYYCARQLYYSYGYYFDYWGQGTTVTVSS
VL: DIVLTQSPASLAVSPGQRATITCRASESVSFHGTHLMHWYQQKPGQPPKLLIYAASNLESGVPARFSGSGSGTDFTLTINPVEAEDTANYYCQQSIEDPPTFGGGTKVEIKR
Take B11: the binding entry in test [1] and in test [2] was “binds” each time.

B12: 17G6A2_hzH3L6_hIgG1 (antibody, V domains shown)
VH: EVQLVESGGGLVKPGGSLRLSCAASGFTFSSYGMSWVRQAPGKRLEWVATISSGDSYTYYPDSVKGRFTISRDNAKNSLYLQMNSLRAEDTAVYYCARQLYYSYGYYFDYWGQGTTVTVSS
VL: DIVLTQSPASLAVSPGQRATITCRASESVSFHGTHLMHWYQQKPGQPPKLLIYAASNLESGVPARFSGSGSGTDFTLTINPVEANDAANYYCQQSIEDPPTFGGGTKVEIKR
As for B12, the binding result in test [1] and in test [2] was “binds” each time.

B13: 17G6A2_hzH2L8_hIgG1 (antibody, V domains shown)
VH: EVQLVESGGGLVKPGGSLRLSCAASGFTFSSYGMSWVRQAPGKGLEWVATISSGDSYTYYPDSVKGRFTISRDNAKNSLYLQMNSLRAEDTAVYYCARQLYYSYGYYFDYWGQGTTVTVSS
VL: DIVLTQSPASLAVSPGQRATITCRASESVSFHGTHLMHWYQQKPGQPPKLLIYAASNLESGVPARFSGSGSETDFTLTINPVEANDAANYYCQQSIEDPPTFGGGTKVEIKR
As to B13, the binding entry in test [1] and in test [2] was “binds” throughout.

B14: 17G6A2_hzH2L6_hIgG1 (antibody, V domains shown)
VH: EVQLVESGGGLVKPGGSLRLSCAASGFTFSSYGMSWVRQAPGKGLEWVATISSGDSYTYYPDSVKGRFTISRDNAKNSLYLQMNSLRAEDTAVYYCARQLYYSYGYYFDYWGQGTTVTVSS
VL: DIVLTQSPASLAVSPGQRATITCRASESVSFHGTHLMHWYQQKPGQPPKLLIYAASNLESGVPARFSGSGSGTDFTLTINPVEANDAANYYCQQSIEDPPTFGGGTKVEIKR
On to B14, for which the binding result in test [1] and in test [2] was “binds” in each case.

B15: 17G6A2_hzH2L7_hIgG1 (antibody, V domains shown)
VH: EVQLVESGGGLVKPGGSLRLSCAASGFTFSSYGMSWVRQAPGKGLEWVATISSGDSYTYYPDSVKGRFTISRDNAKNSLYLQMNSLRAEDTAVYYCARQLYYSYGYYFDYWGQGTTVTVSS
VL: DIVLTQSPASLAVSPGQRATITCRASESVSFHGTHLMHWYQQKPGQPPKLLIYAASNLESGVPARFSGSGSETDFTLTINPVEAEDTANYYCQQSIEDPPTFGGGTKVEIKR
For B15, the binding entry in test [1] and in test [2] was “binds” throughout.

(Values after patent EP4775675A1.)
